# Laboratory results reported in article PMC11381189.
# Chains of the proteins cited; added tags and fusions are not shown. Residues count along the entry.
# UniProt Q15465, residues 24-462: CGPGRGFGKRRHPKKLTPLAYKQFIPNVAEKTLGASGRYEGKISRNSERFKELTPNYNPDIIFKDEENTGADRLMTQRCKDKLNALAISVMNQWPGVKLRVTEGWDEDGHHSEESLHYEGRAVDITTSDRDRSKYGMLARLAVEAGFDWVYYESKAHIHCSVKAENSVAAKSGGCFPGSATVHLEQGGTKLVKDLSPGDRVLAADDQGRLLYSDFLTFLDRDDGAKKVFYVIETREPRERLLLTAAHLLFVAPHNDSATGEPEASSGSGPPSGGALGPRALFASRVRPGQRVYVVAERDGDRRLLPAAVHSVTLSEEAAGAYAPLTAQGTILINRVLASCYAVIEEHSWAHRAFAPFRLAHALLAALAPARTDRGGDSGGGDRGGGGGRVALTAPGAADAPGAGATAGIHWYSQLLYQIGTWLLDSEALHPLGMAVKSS
# UniProt P10070: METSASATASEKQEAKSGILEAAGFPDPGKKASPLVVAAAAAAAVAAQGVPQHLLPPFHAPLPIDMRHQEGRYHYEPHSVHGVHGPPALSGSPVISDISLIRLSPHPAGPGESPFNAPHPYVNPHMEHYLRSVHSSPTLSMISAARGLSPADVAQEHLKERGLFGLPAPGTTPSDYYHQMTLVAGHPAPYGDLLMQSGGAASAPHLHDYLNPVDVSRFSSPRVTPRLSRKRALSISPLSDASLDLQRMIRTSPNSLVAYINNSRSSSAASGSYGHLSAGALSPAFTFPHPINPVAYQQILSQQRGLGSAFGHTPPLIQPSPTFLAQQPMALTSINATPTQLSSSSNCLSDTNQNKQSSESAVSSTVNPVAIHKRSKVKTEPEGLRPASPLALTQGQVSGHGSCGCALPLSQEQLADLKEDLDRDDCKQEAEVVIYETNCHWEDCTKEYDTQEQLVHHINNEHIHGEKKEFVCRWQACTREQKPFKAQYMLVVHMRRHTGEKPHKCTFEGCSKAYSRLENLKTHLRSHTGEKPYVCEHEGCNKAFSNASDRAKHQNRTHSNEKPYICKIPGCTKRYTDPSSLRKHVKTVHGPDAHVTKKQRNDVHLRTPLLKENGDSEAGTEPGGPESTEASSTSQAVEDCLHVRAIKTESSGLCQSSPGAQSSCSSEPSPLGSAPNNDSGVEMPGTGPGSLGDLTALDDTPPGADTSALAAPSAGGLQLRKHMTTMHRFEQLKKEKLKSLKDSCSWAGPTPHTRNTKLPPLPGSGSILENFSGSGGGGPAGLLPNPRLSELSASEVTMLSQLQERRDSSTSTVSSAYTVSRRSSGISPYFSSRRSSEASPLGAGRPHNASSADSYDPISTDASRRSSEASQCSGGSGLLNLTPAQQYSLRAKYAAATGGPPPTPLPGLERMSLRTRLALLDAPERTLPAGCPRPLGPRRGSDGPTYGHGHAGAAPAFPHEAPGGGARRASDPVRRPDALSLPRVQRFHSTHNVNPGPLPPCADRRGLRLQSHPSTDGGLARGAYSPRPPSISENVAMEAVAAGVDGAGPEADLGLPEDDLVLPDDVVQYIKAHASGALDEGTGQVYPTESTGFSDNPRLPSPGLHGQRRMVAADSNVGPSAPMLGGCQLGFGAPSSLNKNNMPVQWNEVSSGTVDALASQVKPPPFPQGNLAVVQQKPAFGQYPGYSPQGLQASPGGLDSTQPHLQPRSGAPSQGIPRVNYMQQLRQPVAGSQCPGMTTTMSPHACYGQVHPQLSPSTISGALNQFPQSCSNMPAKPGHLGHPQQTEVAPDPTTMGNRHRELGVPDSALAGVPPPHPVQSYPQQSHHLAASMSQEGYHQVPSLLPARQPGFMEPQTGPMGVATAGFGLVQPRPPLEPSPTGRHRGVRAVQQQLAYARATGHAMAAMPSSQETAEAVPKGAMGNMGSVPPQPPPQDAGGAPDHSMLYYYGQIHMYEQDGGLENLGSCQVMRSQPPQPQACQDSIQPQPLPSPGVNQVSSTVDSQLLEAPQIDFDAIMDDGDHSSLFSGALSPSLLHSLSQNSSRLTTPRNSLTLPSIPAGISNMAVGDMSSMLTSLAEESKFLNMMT
# Results are given in words; binding and its absence hold for the method and conditions named. Binding seen in cells or lysates may run through a third protein. Some binding calls cover weakened binding; strength is not graded here. Sequences can lack the tags named with a protein.
# Target: T1, KIAA0753-Flag (UniProt Q2KHM9)
# T1 sequence: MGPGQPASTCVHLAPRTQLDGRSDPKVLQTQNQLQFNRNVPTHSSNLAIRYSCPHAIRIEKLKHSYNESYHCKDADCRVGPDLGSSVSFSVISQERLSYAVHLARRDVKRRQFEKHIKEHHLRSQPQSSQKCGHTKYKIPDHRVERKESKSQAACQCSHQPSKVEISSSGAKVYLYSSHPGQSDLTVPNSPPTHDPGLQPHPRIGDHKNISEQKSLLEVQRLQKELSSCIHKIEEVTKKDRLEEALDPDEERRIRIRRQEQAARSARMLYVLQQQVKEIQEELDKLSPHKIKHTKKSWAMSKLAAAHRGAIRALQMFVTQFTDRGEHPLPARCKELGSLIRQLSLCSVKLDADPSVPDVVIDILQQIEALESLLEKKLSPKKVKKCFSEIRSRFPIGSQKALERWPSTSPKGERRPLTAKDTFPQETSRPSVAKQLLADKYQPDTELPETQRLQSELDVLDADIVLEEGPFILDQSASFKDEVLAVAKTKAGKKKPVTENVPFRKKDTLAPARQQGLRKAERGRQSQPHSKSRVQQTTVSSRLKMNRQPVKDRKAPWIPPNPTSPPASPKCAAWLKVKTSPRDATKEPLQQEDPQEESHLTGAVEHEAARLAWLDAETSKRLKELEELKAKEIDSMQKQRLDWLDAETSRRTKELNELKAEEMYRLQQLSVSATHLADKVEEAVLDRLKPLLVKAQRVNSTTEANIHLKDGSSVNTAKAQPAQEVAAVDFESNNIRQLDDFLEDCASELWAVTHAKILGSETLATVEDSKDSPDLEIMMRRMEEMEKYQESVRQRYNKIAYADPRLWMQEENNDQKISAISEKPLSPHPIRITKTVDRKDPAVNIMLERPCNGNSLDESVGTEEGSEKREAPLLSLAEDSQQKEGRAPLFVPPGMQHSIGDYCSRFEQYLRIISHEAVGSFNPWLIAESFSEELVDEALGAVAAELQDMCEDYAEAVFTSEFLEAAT
# Test: co-IP; HEK293T cells transfected for 48 h; lysed in RIPA buffer with PMSF; lysate incubated with antibody of Flag, KIAA0753, Gli2 or IgG at 4°C for 24 h; captured with Protein A+G Agarose; washed 10 times with PBS; western blot
row,binding,Substance
1,binds,SHH-Flag (from UniProt Q15465 24-462)
2,binds,Gli2-Myc (from UniProt P10070 1-1586)
